## Primary screen of a compound library

The filed quantity is “Percent Effect” (%). The record does not define 0% and 100%; most values in the screen are far below 50% and negative numbers occur (in some assays of this library far below -100). This is an unselected part of the compounds tested. Two or more numbers in one place are separate tests of the same structure; such repeats can differ widely.

A: 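Growth of Mycobacterium tuberculosis over 3 days (7H9 medium with glucose and tyloxapol); the read-out is not stated. Tested at 50 µM. The record gives no direction; compounds that gave an IC50 in retests scored well above the rest, so higher reads as more growth inhibition. About 69,000 compounds were tested under these conditions; 1.1% (about 760) showed 50% or more at least once.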
B: 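Whole-cell growth test on Mycobacterium tuberculosis, read after 4 days in a medium based on cholesterol and the lipid DPPC; the read-out is not stated. Tested at 50 µM. Higher reads as more growth inhibition (inferred: compounds with an IC50 in retests scored well above the rest). Size under these conditions: about 69,000 compounds, about 370 of them at 50% or above in at least one test.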

With CCN1C(=O)CCC12CCN(C(=O)c1ccco1)CC2 the screen gave A: -7.051%; B: -9.12%. Result for COc1ccc(NC(=O)CSc2nncn2-n2cccc2)c(OC)c1 was A: -2.07%; B: -3.631%. CCNC(=O)CNCc1c(C(C)C)nn(C)c1N1CCOCC1 read A: 4.929%; B: -6.048%. CCOC(=O)[C@@H]1[C@@H](O)C(=O)N(C)C12CCN(C(=O)OC)CC2 read A: -9.659%; B: -18.83%. For Cc1ccc(CN2CCOC3(COCCN(S(C)(=O)=O)C3)C2)s1.O=C(O)C(F)(F)F (configuration not stated) the result was A: 0.1385% & 12.34%; B: 6.552%. Cc1c(C(=O)N2CCCC2c2cnn(C)c2)nnn1-c1ccccc1 (configuration not stated) read A: 38.68%; B: 6.966%.

With O=C(O)C(F)(F)F.c1ccc(Cn2cc3c(n2)C(COCC2CC2)OCC3)nc1 (configuration not stated) the screen gave A: -9.946%; B: -5.957%. CCOC(C(=O)N1CCn2c(CC)nnc2C1)c1ccccc1 (configuration not stated) gave A: -4.961% & 4.295%; B: -5.959%. Result for CCNC(=O)[C@@H]1C[C@H](N)CN1c1cc(C(F)(F)F)nc(N(C)C)n1 was A: 7.599% & 9.408%; B: -22.39%. CCn1nc(C)c2nc(C(C)C)nc(NC)c21 read A: -9.703%; B: -15.2%. Cc1nc(N2CCN(C(=O)c3cccnc3)CC2)cc(-n2cccc2)n1 gave A: 40.13%; B: 10.55%. Cn1nc(CNC(=O)c2ccc3c(c2)OCO3)c2c1CCOC2 read A: 14.63%; B: -13.41%.

For Cc1cncc(C2CCN(Cc3cccn3C)CC2)n1 the result was A: -15.13%; B: -26.17%. O=C(O)C(F)(F)F.O=C(O)C(F)(F)F.c1cncc(C2COC3(CCN(Cc4cccs4)CC3)C2)c1 (configuration not stated) read A: -7.949%; B: -1.797%. For CC(NC(=O)N1CCS(=O)(=O)CC1)c1c(F)cccc1Cl (configuration not stated) the result was A: 12.52% & 11.35%; B: -0.3217%. Result for CC(=O)N1CCCC1C(=O)N1CCC(=Cc2cccc(F)c2)CC1 (configuration not stated) was A: -2.459% & -19.1%; B: -5.141%. O=c1c(Cc2ccccc2)c(O)ccn1CCc1ccccc1 gave A: -10.08% & 0.186%; B: 3.344%. With O=C(CCCc1nnc(-c2ccccc2)o1)N1CCC1 the screen gave A: -1.663%; B: -5.631%.

With O=C(Nc1cccnc1)NC1CCN(c2ccccc2OC(F)F)C1 (configuration not stated) the screen gave A: -8.896% & 22.23%; B: 17.53%. Cn1cc(C(C)(O)CNC(=O)c2cc(Br)cn2C)cn1 (configuration not stated) gave A: -26.28%; B: -11.56%. CNc1snc(C)c1C(=O)N1CCCC(n2nc(C)cc2C)C1 (configuration not stated) read A: -14.98%; B: -49.2%. Result for COCCCN1CCCC2(CCN(S(=O)(=O)c3cccnc3)C2)C1=O (configuration not stated) was A: -7.026%; B: -26.44%. For CCC1COCCN1C(=O)CNC(=O)c1ccsc1 (configuration not stated) the result was A: -4.743% & 7.002%; B: -5.726%. For CC(C)c1nc(C2CCCN2C(=O)CCn2cncn2)no1 (configuration not stated) the result was A: 8.678%; B: -1.033%.

CCOC1CCN(C(=O)c2cc(-c3ccc(Cl)cc3)on2)CC1 gave A: 37.95%; B: 14.67%. With COc1cccc(N2CCN(Cc3ccc4occc4c3)CC2=O)c1 the screen gave A: -4.748%; B: 0.03614%. COCCNC(=O)c1cc2c(nc1O)CC(c1cccs1)CC2=O (configuration not stated) read A: -8.924%; B: -12.76% & 0.3762%. Oc1ccc(Br)c(CNc2cccc(-c3nnc[nH]3)c2)c1 read A: -16.87% & -5.581%; B: -5.649%. Cc1cnn(CC2CCCN2C(=O)c2ccc(Cl)cc2F)c1 (configuration not stated) gave A: 6.486%; B: -1.07%. Result for CCOC1CCN(C(=O)CN(C)c2cnccn2)CC1 was A: -26.05%; B: 9.79%.

Repeated from the top, 2 entries:

{"compound": "CCN1C(=O)CCC12CCN(C(=O)c1ccco1)CC2", "A": -7.051, "B": -9.12}
{"compound": "COc1ccc(NC(=O)CSc2nncn2-n2cccc2)c(OC)c1", "A": -2.07, "B": -3.631}

Measurements from “University of Dundee, Small-Polar-MMV Screening Library” (2021), ChEMBL document CHEMBL3988442.